These are yes or no findings as the source states them, for the method shown. Binding seen in cells or lysates may run through a third protein. Some binding calls cover weakened binding; strength is not graded here. For some of these results: Sequences can lack the tags named with a protein.
How the values were obtained:
[1] = target: human RER carrying a second, different tag (homodimer coIP) (human) (UniProt O75787); test: co-immunoprecipitation of two differently tagged human RER constructs, transfected HEK293 cells
[2] = target: full-length human RER fused to EGFP (RER full) (human) (UniProt O75787); test: co-immunoprecipitation of EGFP-fused RER constructs with PLZF-myc on anti-myc agarose, HEK293 cells
[3] = target: FLAG-tagged full-length human RER (pCEP4-RER-FLAG) (human) (UniProt O75787); test: co-immunoprecipitation from transfected HEK293 cells (FLAG-tagged RER, c-myc-tagged PLZF), Western blot
[4] = target: endogenous human RER of HEK293 cells (human) (UniProt O75787); test: endogenous co-immunoprecipitation from HEK293 total lysate with anti-PLZF antibody, Western blot for RER

By UniProt entry, the sequences of proteins in these tests, tags left out. Residues count along the entry.
UniProt O75787, residues 17-350: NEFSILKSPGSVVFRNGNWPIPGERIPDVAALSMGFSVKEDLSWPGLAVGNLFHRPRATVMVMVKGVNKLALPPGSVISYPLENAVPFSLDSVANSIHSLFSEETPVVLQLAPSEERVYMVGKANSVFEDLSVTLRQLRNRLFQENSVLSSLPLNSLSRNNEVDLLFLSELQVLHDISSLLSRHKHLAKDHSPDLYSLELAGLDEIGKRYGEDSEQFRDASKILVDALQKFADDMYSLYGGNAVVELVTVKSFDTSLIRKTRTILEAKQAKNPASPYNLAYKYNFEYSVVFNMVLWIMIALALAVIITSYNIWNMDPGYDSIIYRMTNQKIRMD

human RER carrying a first tag (homodimer coIP) (from UniProt O75787 17-350) (receptor)
binding [1]: binds

B1: c-myc-tagged full-length human PLZF (pCEP4-PLZF-myc) (protein, UniProt Q05516 1-673, looked up, not shown: small tags and cut ends)
chain: MDLTKMGMIQLQNPSHPTGLLCKANQMRLAGTLCDVVIMVDSQEFHAHRTVLACTSKMFEILFHRNSQHYTLDFLSPKTFQQILEYAYTATLQAKAEDLDDLLYAAEILEIEYLEEQCLKMLETIQASDDNDTEATMADGGAEEEEDRKARYLKNIFISKHSSEESGYASVAGQSLPGPMVDQSPSVSTSFGLSAMSPTKAAVDSLMTIGQSLLQGTLQPPAGPEEPTLAGGGRHPGVAEVKTEMMQVDEVPSQDSPGAAESSISGGMGDKVEERGKEGPGTPTRSSVITSARELHYGREESAEQVPPPAEAGQAPTGRPEHPAPPPEKHLGIYSVLPNHKADAVLSMPSSVTSGLHVQPALAVSMDFSTYGGLLPQGFIQRELFSKLGELAVGMKSESRTIGEQCSVCGVELPDNEAVEQHRKLHSGMKTYGCELCGKRFLDSLRLRMHLLAHSAGAKAFVCDQCGAQFSKEDALETHRQTHTGTDMAVFCLLCGKRFQAQSALQQHMEVHAGVRSYICSECNRTFPSHTALKRHLRSHTGDHPYECEFCGSCFRDESTLKSHKRIHTGEKPYECNGCGKKFSLKHQLETHYRVHTGEKPFECKLCHQRSRDYSAMIKHLRTHNGASPYQCTICTEYCPSLSSMQKHMKGHKPEEIPPDWRIEKTYLYLCYV
binding [2]: binds | binding [3]: binds

B2: endogenous human PLZF of HEK293 cells (protein, UniProt Q05516 1-673, looked up)
chain: MDLTKMGMIQLQNPSHPTGLLCKANQMRLAGTLCDVVIMVDSQEFHAHRTVLACTSKMFEILFHRNSQHYTLDFLSPKTFQQILEYAYTATLQAKAEDLDDLLYAAEILEIEYLEEQCLKMLETIQASDDNDTEATMADGGAEEEEDRKARYLKNIFISKHSSEESGYASVAGQSLPGPMVDQSPSVSTSFGLSAMSPTKAAVDSLMTIGQSLLQGTLQPPAGPEEPTLAGGGRHPGVAEVKTEMMQVDEVPSQDSPGAAESSISGGMGDKVEERGKEGPGTPTRSSVITSARELHYGREESAEQVPPPAEAGQAPTGRPEHPAPPPEKHLGIYSVLPNHKADAVLSMPSSVTSGLHVQPALAVSMDFSTYGGLLPQGFIQRELFSKLGELAVGMKSESRTIGEQCSVCGVELPDNEAVEQHRKLHSGMKTYGCELCGKRFLDSLRLRMHLLAHSAGAKAFVCDQCGAQFSKEDALETHRQTHTGTDMAVFCLLCGKRFQAQSALQQHMEVHAGVRSYICSECNRTFPSHTALKRHLRSHTGDHPYECEFCGSCFRDESTLKSHKRIHTGEKPYECNGCGKKFSLKHQLETHYRVHTGEKPFECKLCHQRSRDYSAMIKHLRTHNGASPYQCTICTEYCPSLSSMQKHMKGHKPEEIPPDWRIEKTYLYLCYV
binding [4]: binds

From patent publication US20110190142A1, “DETERMINATION OF RENIN-PRORENIN RECEPTOR ACTIVITY” (Charite- Universitatsmedizin Berlin, priority 2006, published 2011)
